PubChem BioAssay AID1159591 – NIAID, 2016

Screen: 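TLR7/8 agonist R848 and Tnf expression after gene knock-down in mouse macrophages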
Cells: mouse RAW264.7 G9 macrophage reporter clone (GFP-p65, Tnf promoter-mCherry)
Knock-down reagent: single siRNA against mouse genes
Time to read-out: cells assayed 48 to 72 hours after siRNA transfection; R848 for 16 hours before fixing
Treatment: R848 (TLR7/8 agonist) for 16 hours before fixation; dose not given
Measured: 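After R848 for 16 hours, nuclear Tnf promoter mCherry signal imaged minus background, scaled per plate by median and MAD into robust z against non-targeting controls, averaged across replicates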
Direction: mean Tnf reporter z-score: higher = stronger Tnf promoter reporter signal than controls
Call rule: 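Absolute z above 1, 1.5, 2 or 2.5 scores 25 up to 100; no stated active threshold; in practice calls fall at roughly z ≤ -1.5 or z ≥ 1.5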
Calls: active = reporter clearly up or down; inactive = little reporter change
In all, the deposit lists 756 reagents; below is a random part of them. Of all reagents, 130 (17%) were called active. 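Active calls include both lower and higher Tnf reporter signal.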 The numbers tell different reagents against one gene apart. No sequences are given here. Not stated in the record: the amount of reagent.

no.	Target gene	reagent no.	mean Tnf reporter z-score	Call
1	Ikbkb	1	-1.1	inactive
2	Ikbkb	2	-1.89	active
3	Ikbkb	3	-0.875	inactive
4	Ikbkb	4	0.436	inactive
5	Ikbkb	5	-1.4	inactive
6	Ikbkb	6	-0.395	inactive
7	Ifnar1	1	-0.661	inactive
8	Ifnar1	2	-0.417	inactive
9	Ifnar1	3	-1.36	inactive
10	Ifnar1	4	0.929	inactive
11	Ifnar1	5	-1.86	active
12	Ifnar1	6	-1.1	inactive
13	Tlr1	1	0.696	inactive
14	Tlr1	2	0.25	inactive
15	Tlr1	3	-0.483	inactive
16	Tlr1	4	0.39	inactive
17	Tlr1	5	-0.435	inactive
18	Tlr1	6	-0.558	inactive
19	Irf5	1	-3.28	active
20	Irf5	2	0.25	inactive
21	Irf5	3	0.127	inactive
22	Irf5	4	-0.637	inactive
23	Irf5	5	-0.167	inactive
24	Irf5	6	-0.749	inactive
25	Pik3r5	1	-0.141	inactive
26	Pik3r5	2	-1.32	inactive
27	Pik3r5	3	-1.45	inactive
28	Pik3r5	4	-0.264	inactive
29	Pik3r5	5	-1.9	active
30	Pik3r5	6	0.131	inactive

Called active, of those listed so far:
Target gene	reagent no.	mean Tnf reporter z-score	Call
Ikbkb	2	-1.89	active
Ifnar1	5	-1.86	active
Irf5	1	-3.28	active
Pik3r5	5	-1.9	active

The listing continues.
no.	Target gene	reagent no.	mean Tnf reporter z-score	Call
31	Il12b	1	-1.25	inactive
32	Il12b	2	-0.847	inactive
33	Il12b	3	-0.443	inactive
34	Il12b	4	-0.0683	inactive
35	Il12b	5	-0.781	inactive
36	Il12b	6	1.14	inactive
37	Tnfaip3	1	1.07	inactive
38	Tnfaip3	2	-0.0461	inactive
39	Tnfaip3	3	0.312	inactive
40	Tnfaip3	4	0.0599	inactive
41	Tnfaip3	5	2.29	active
42	Tnfaip3	6	0.229	inactive
43	Tlr5	1	0.143	inactive
44	Tlr5	2	1	inactive
45	Tlr5	3	-0.178	inactive
46	Tlr5	4	0.462	inactive
47	Tlr5	5	-0.846	inactive
48	Tlr5	6	0.781	inactive
